# What was measured:
# 9B1 = assay type: binding, mouse; conditions: read-out: Ki (9B1); pH 7.4
# h9B1 = assay type: binding; conditions: read-out: Ki (h9B1); pH 7.4
smiles,measurement,setting,value
CCOC(=O)C1(c2ccccc2)CCN(C)CC1 [meperidine],Ki,9B1,8.89 µM
same,Ki,h9B1,15.7 µM

# From PMC7790953 (ACS chemical neuroscience, 2020)
